Results deposited as PubChem BioAssay AID1053208 (Peter MacCallum Cancer Centre, 2014)
This is an unselected part of about 17,000 reagents. 788 of them (4.7%) count as active. 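Calls rest on z-score classes alone; an extra cut-off of viability at most 70% of control was not applied to them.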 Not all columns of the deposit are shown. Reagent sequences are not shown.

Assay: 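Find knock-downs that sensitise mouse osteosarcoma cells to doxorubicin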 (primary screen)
System: mouse osteosarcoma cells, early-passage culture from an engineered mouse model of fibroblastic bone tumour
Reagents: siRNA pool against mouse genes, 40 nM
Duration: about 120 h (48 h before drug, then 72 h with drug)
Treatment: doxorubicin 100 nM for 72 h, roughly 30-40% inhibitory dose
Detection: 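Viability read as ATP luminescence after 72 h of 100 nM doxorubicin or none, duplicate wells averaged, scaled to non-targeting siRNA, then expressed as robust z-scores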
Direction: viability z-score with doxorubicin: higher = more viable cells under doxorubicin; viability z-score without drug: higher = more viable cells with knock-down alone; z-score of drug to no-drug ratio: higher = less drug sensitisation by knock-down
Active means: 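Called active if knock-down leaves viability unchanged without drug (z within -2 to 2) but lowers it with doxorubicin (z at or under -2)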

The first 2 records, to show the layout:
gene,combined z-score class,viability z-score with doxorubicin,viability z-score without drug,z-score of drug to no-drug ratio,call
Dusp11,no change with or without drug,-1.01,0.51,-1.24,inactive
Adipor1 (adiponectin receptor 1),no change with or without drug,1.01,0,1.12,inactive

The list itself, repeating the preview:
gene,combined z-score class,viability z-score with doxorubicin,viability z-score without drug,z-score of drug to no-drug ratio,call
Dusp11,no change with or without drug,-1.01,0.51,-1.24,inactive
Adipor1 (adiponectin receptor 1),no change with or without drug,1.01,0,1.12,inactive
Magea2 (MAGE family member A2),no change with or without drug,-1.12,-0.51,-0.79,inactive
"Fam163b (family with sequence similarity 163, member B)",no change with or without drug,1.24,0.17,1.24,inactive
1700088E04Rik (RIKEN cDNA 1700088E04 gene),no change with or without drug,-1.24,-0.51,-0.9,inactive
Sart3 (squamous cell carcinoma antigen recognized by T cells 3),no change with or without drug,0.22,1.85,-0.79,inactive
Mepce (methylphosphate capping enzyme),no change with or without drug,-0.79,0.51,-1.01,inactive
Smtnl1 (smoothelin-like 1),no change with or without drug,-1.24,-0.51,-0.9,inactive
Slc6a17,no change with or without drug,0.67,0.84,0.22,inactive
Rpf1 (ribosome production factor 1 homolog),low cell count without drug only,-1.35,-4.22,2.14,inactive
Bbs9 (Bardet-Biedl syndrome 9),no change with or without drug,0.9,0.84,0.45,inactive
"Tubb2a (tubulin, beta 2A class IIA)",no change with or without drug,0.22,0.67,-0.11,inactive
Glrx5 (glutaredoxin 5),no change with or without drug,-0.79,-0.17,-0.56,inactive
Sema6b,no change with or without drug,0.9,0.51,0.67,inactive
Cwc15 (CWC15 spliceosome-associated protein),low cell count without drug only,0.56,-2.53,2.92,inactive
Tcp11l1 (t-complex 11 like 1),low cell count with doxorubicin only,-2.92,-1.35,-2.25,active
Recql5 (RecQ protein-like 5),no change with or without drug,-0.22,-0.17,0,inactive
Thnsl2 (threonine synthase-like 2 (bacterial)),no change with or without drug,-0.56,-0.17,-0.34,inactive
Lyz3 (lysozyme 3),high cell count without drug only,1.35,2.19,0,inactive
Ggh (gamma-glutamyl hydrolase),no change with or without drug,1.35,-0.51,1.91,inactive
Pirt,no change with or without drug,0.11,0,0.22,inactive
Nobox (NOBOX oogenesis homeobox),no change with or without drug,0.56,0.84,0.11,inactive
Hook1 (hook microtubule tethering protein 1),no change with or without drug,0.79,0.51,0.56,inactive
"Aldoc (aldolase C, fructose-bisphosphate)",no change with or without drug,0.67,-0.67,1.35,inactive
Gdf15 (growth differentiation factor 15),no change with or without drug,0.79,0.51,0.56,inactive
Rad1 (RAD1 checkpoint DNA exonuclease),no change with or without drug,0.67,-0.17,0.9,inactive
Sqstm1 (sequestosome 1),high cell count with doxorubicin only,2.81,1.35,2.02,inactive
Dcaf15 (DDB1 and CUL4 associated factor 15),no change with or without drug,0.45,0.17,0.45,inactive
F8a (factor 8-associated gene A),no change with or without drug,0.56,0.84,0.11,inactive
Clca3a1 (chloride channel accessory 3A1),no change with or without drug,-1.35,-0.84,-0.79,inactive
Lcp2 (lymphocyte cytosolic protein 2),no change with or without drug,-0.79,-0.84,-0.11,inactive
"Myh10 (myosin, heavy polypeptide 10, non-muscle)",no change with or without drug,-0.45,0.17,-0.45,inactive
Fkbp1b (FK506 binding protein 1b),no change with or without drug,1.12,0.84,0.67,inactive
Polr3gl (polymerase (RNA) III (DNA directed) polypeptide G like),no change with or without drug,-0.67,0.84,-1.12,inactive
Plaat3 (phospholipase A and acyltransferase 3),no change with or without drug,1.57,1.52,0.67,inactive
Slc2a3,no change with or without drug,0,0.84,-0.45,inactive
"Prkar1a (protein kinase, cAMP dependent regulatory, type I, alpha)",no change with or without drug,0.56,-1.52,1.91,inactive
Or8k37 (olfactory receptor family 8 subfamily K member 37),no change with or without drug,-0.22,-1.52,1.01,inactive
Ogg1 (8-oxoguanine DNA-glycosylase 1),no change with or without drug,0,0.17,0,inactive
C230086A09RIK,no change with or without drug,0.79,0.17,0.79,inactive
Erf (Ets2 repressor factor),no change with or without drug,0.22,0.51,0,inactive
Mrps21 (mitochondrial ribosomal protein S21),no change with or without drug,0.34,-1.01,1.24,inactive
"Pcdhgc4 (protocadherin gamma subfamily C, 4)",no change with or without drug,-0.22,-0.84,0.45,inactive
Hsd11b1 (hydroxysteroid 11-beta dehydrogenase 1),no change with or without drug,-1.24,-0.84,-0.67,inactive
Pkib,no change with or without drug,1.57,0.67,1.24,inactive
Invs (inversin),no change with or without drug,-1.35,-1.18,-0.56,inactive
Vmn1r75 (vomeronasal 1 receptor 75),no change with or without drug,0.56,0.51,0.34,inactive
Gpn1 (GPN-loop GTPase 1),low cell count with and without drug,-4.27,-2.87,-2.92,inactive
Eya2 (EYA transcriptional coactivator and phosphatase 2),no change with or without drug,-0.45,0.51,-0.67,inactive
Nop53 (NOP53 ribosome biogenesis factor),low cell count without drug only,-1.35,-2.87,0.79,inactive
